The source of these data is article PMC7819943, “Rice protein-binding microarrays: a tool to detect cis-acting elements near promoter regions in rice”.

Protein sequences, listed by entry. Tags and fused reporters are not part of them.
UniProt Q0JBA9, entry or part of it: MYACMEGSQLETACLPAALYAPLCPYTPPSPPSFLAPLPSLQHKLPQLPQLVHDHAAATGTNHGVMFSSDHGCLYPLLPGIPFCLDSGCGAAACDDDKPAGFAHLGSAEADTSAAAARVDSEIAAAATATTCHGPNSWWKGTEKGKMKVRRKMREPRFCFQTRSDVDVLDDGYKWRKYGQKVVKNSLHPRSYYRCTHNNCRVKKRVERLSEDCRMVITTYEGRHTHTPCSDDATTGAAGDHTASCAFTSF

The list shows a part of the results.

The target of this test is OsWRKY34 (Oryza sativa, UniProt Q0JBA9 1-250). The experiment in a line: protein-binding microarray (RPBM); PBS, 2% BSA, 51.3 ng/ul salmon testes DNA, 50 uM zinc acetate, 200 nM TF, 25 C, 1 h; high values mean tight binding. The note with it: protein: recombinant; tags: N-terminal polyhistidine and DsRed monomer fusion (pET32a); label: CyDye5-dUTP incorporated in the synthesized complementary strand; 3' TTTTT single-stranded linker to array surface; dsDNA, one strand shown. The essentials: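 Transcription factors were each fused at the N-terminus to a polyhistidine tag plus DsRed and expressed in E. coli BL21-CodonPlus before Ni–NTA purification. Binding to a double-stranded custom Agilent array was carried out with 200 nM protein at 25 °C for 1 h in PBS, 2% BSA, salmon testes DNA and 50 µM zinc acetate. The binding signal is per-feature fluorescence intensity, in arbitrary units, on an Axon 4000B scanner.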
In the case of “CTTCTTGCGTTCACTGTTGTTTACCTGTTATTTTTAATCTCGGAGTCACCTAGTGCAG”, the binding signal was 9160 fluorescence intensity (a.u.).
The same measure for “CCGCTCCGCATCCGCATCCGTACATTATTTGCATCTGCTCCGGAGTCACCTAGTGCAG”: 9550 fluorescence intensity (a.u.); for “ATAGCATTAGCTGCTTGGTTTGACCATTGGTCATGGGGTTCGGAGTCACCTAGTGCAG”: 12300 fluorescence intensity (a.u.).
The same measure for “ATTAACGTTTCACCCGCGCGCGCCCACCTGCCGCTGCAATCGGAGTCACCTAGTGCAG”: 8650 fluorescence intensity (a.u.); for “AATATAGTCTATTCAATTTCAGCTATAAGTTTTCTGTTTTCGGAGTCACCTAGTGCAG”: 9550 fluorescence intensity (a.u.); for “CCTATGCCTGAGCCGTACTTGTGCCGTTGTGCGGTTAATCCGGAGTCACCTAGTGCAG”: 10200 fluorescence intensity (a.u.).
The same measure for “TATAAATGAGATAGCCCACATAGCAGCGCTGCCGTTTCTCCGGAGTCACCTAGTGCAG”: 8800 fluorescence intensity (a.u.); for “ACCGACTGACTCATAATCTCTTCTCCTTGCTCTCTAGTTTCGGAGTCACCTAGTGCAG”: 8790 fluorescence intensity (a.u.); for “GACCACCAAGAGAAAGACCGGAGTCACCAGCACTGACCACCGGAGTCACCTAGTGCAG”: 8450 fluorescence intensity (a.u.).
“TGTGTGGTAGTTCGGGGTGGACCTACTTCTAATTATTGGGCGGAGTCACCTAGTGCAG”: the binding signal is 14100 fluorescence intensity (a.u.).
The same measure for “TGAGATGATGTGTGTTGTTCATTGTGCTTGTGTTGGAGATCGGAGTCACCTAGTGCAG”: 8830 fluorescence intensity (a.u.); for “ACTACAGCTAAAGCACGCTGCTTTTCTTTTTTTTTCATTACGGAGTCACCTAGTGCAG”: 9940 fluorescence intensity (a.u.); for “ACTTTATGCGTGACTTGTCTTTTTAATTTTTTTCATATTCCGGAGTCACCTAGTGCAG”: 12200 fluorescence intensity (a.u.).
The same measure for “AGTGCGCGTGGGTGGGTGTGCGTGTTGTAGCTCTTTCATGCGGAGTCACCTAGTGCAG”: 11200 fluorescence intensity (a.u.); for “TACAACCAAGTCTGACAAACACTACTGCTATGGCTTCTTTCGGAGTCACCTAGTGCAG”: 9190 fluorescence intensity (a.u.); for “CTCTAGCTCTACGTGAACACCTTGGCCGTCATCAAATCCGCGGAGTCACCTAGTGCAG”: 9800 fluorescence intensity (a.u.).
Regarding “TTTTCGATTCTCTCCACTCCTGTGTTCACCATCGTCCTTACGGAGTCACCTAGTGCAG”, the binding signal is 11600 fluorescence intensity (a.u.).
The same measure for “CTCTCCACCTCGCGAGATCTAATCCCAATTCCCAACCTCACGGAGTCACCTAGTGCAG”: 9400 fluorescence intensity (a.u.); for “CCTCTCCTTTCCATTGTTGCTCCGCTCGGATTCCGCTCTTCGGAGTCACCTAGTGCAG”: 9200 fluorescence intensity (a.u.); for “GCCAGTTAGCCTAATTCTGCCTATAAATACACGGGCAAATCGGAGTCACCTAGTGCAG”: 8130 fluorescence intensity (a.u.).
As for “ATCTTACTGTCTTTCCTTATCTTCTTGGTTGCTGTATCAGCGGAGTCACCTAGTGCAG”, the figure is 9600 fluorescence intensity (a.u.); as for “CCTCCCTTTCTCATAGTTCCAGTGTTATTTTTATTCTCTCCGGAGTCACCTAGTGCAG”, 8260 fluorescence intensity (a.u.).
The same measure for “CCAACTTTTTCATCACATTATTCCAATTTCAACCAAACCTCGGAGTCACCTAGTGCAG”: 9010 fluorescence intensity (a.u.); for “ATCATTGGTAGCCGCATTTGTTGTTCTTTCGTTCATCATGCGGAGTCACCTAGTGCAG”: 12200 fluorescence intensity (a.u.); for “ACTACGTATATTTTTATGTACTTCAATTCTCTACTATTATCGGAGTCACCTAGTGCAG”: 8330 fluorescence intensity (a.u.).
In the case of “GATCGTTTAGTTCTGTCCTTTTTTGTTGGTTTCTTGGGGACGGAGTCACCTAGTGCAG”, the binding signal was 10700 fluorescence intensity (a.u.).
As for “TACTACTAGTTTTCTTTCTTGGCCATCATCATTTGTTCCTCGGAGTCACCTAGTGCAG”, the figure is 9860 fluorescence intensity (a.u.).
The same measure for “GGATGACAACGCACACACTGTTAGGCCTCCTTTGGAACACCGGAGTCACCTAGTGCAG”: 8050 fluorescence intensity (a.u.); for “TTTCGGCCGTGGCTCGTCTTCTGCGCGCCGGTGTTGATCTCGGAGTCACCTAGTGCAG”: 8290 fluorescence intensity (a.u.); for “GCTTCTTCATCGATCGCCATCGTCTTCTCCAGTCCTCATGCGGAGTCACCTAGTGCAG”: 12600 fluorescence intensity (a.u.).
As for “AAGTTGGACTTTCTTTTCTTTCTTTATTTACCTTTTTTTGCGGAGTCACCTAGTGCAG”, the figure is 8700 fluorescence intensity (a.u.).
On to “TTTTTTCAACATGAGTCCCACGATTCGATTTAACACTACACGGAGTCACCTAGTGCAG”, for which the binding signal is 8070 fluorescence intensity (a.u.).
The same measure for “CCCTTCTCTCTCTCTCTCTCTCTCTCTCTCTCTCTCTCTCCGGAGTCACCTAGTGCAG”: 11500 fluorescence intensity (a.u.); for “ACAAGTCAACACCACCATGCAATCTCCATGCTAGCCAAAACGGAGTCACCTAGTGCAG”: 9440 fluorescence intensity (a.u.).
As for “TGTTCGTCGGTGACTTGTTCGTACGGTTATGTGTGTCTGTCGGAGTCACCTAGTGCAG”, the figure is 13000 fluorescence intensity (a.u.).
For “ACTACTCTACGTCATCGTCAAAATGTGTATAAACACAATCCGGAGTCACCTAGTGCAG”, the binding signal is 9110 fluorescence intensity (a.u.).
Take “TTTCTCTTCAAGCTCACTTTTCTTGTGATGTGTTCACATTCGGAGTCACCTAGTGCAG”: the binding signal is 8210 fluorescence intensity (a.u.).
As for “TGTTTTATGTGTTTTTTCTATTTCTTAAATTTTTTTTCATCGGAGTCACCTAGTGCAG”, the figure is 12700 fluorescence intensity (a.u.); as for “TACATGTTTGACTTTGACTTGGTTTTTGGATATTTCATTTCGGAGTCACCTAGTGCAG”, 9170 fluorescence intensity (a.u.).
The same measure for “AACGTTAAGCACGGAAACCAGGGTTTGTCTTTTTTCCTTTCGGAGTCACCTAGTGCAG”: 8480 fluorescence intensity (a.u.); for “CATTCATTTCATCACCAGTTTTCCCTGGACCAAAAATCCACGGAGTCACCTAGTGCAG”: 8710 fluorescence intensity (a.u.); for “GTCTCAATGTCTCACCATTTGGCAACTGTTGTTTTGATCGCGGAGTCACCTAGTGCAG”: 10400 fluorescence intensity (a.u.).
